Series [1] addresses SSRP1-M R211A/R213A (Homo sapiens) (UniProt Q08945). As to the kind of experiment: EMSA (native PAGE). To be noted: more free DNA than WT, in agarose EMSA free DNA similar to WT; EMSA buffer; proteins purified in 20 mM Tris-HCl, 200 mM NaCl, pH 7.0; recombinant protein; residues 196-430; protein details: N-terminal 6xHis.
Series [2] deals with SSRP1-M R211A/R213A/K364A/K346A (Homo sapiens) (UniProt Q08945). As to the kind of experiment: EMSA (native PAGE). To be noted: EMSA buffer; proteins purified in 20 mM Tris-HCl, 200 mM NaCl, pH 7.0; recombinant protein; residues 196-430; protein details: N-terminal 6xHis.
Series [3] concerns the target SSRP1-M R241A/R357A/K319A/K325A (Homo sapiens) (UniProt Q08945). The experiment in a line: EMSA (native PAGE). To be noted: more gel shifting than WT; EMSA buffer; proteins purified in 20 mM Tris-HCl, 200 mM NaCl, pH 7.0; recombinant protein; residues 196-430; protein details: N-terminal 6xHis.
Series [4] has as its target SSRP1-M K319A/K325A (Homo sapiens) (UniProt Q08945). As to the kind of experiment: EMSA (agarose and native PAGE). To be noted: less oligomerized, more shifted complex than WT; EMSA buffer; proteins purified in 20 mM Tris-HCl, 200 mM NaCl, pH 7.0; recombinant protein; residues 196-430; protein details: N-terminal 6xHis.
Series [5] has as its target SSRP1-M K364A/K346A (Homo sapiens) (UniProt Q08945). As to the kind of experiment: EMSA (agarose and native PAGE). To be noted: more free DNA than WT; EMSA buffer; proteins purified in 20 mM Tris-HCl, 200 mM NaCl, pH 7.0; recombinant protein; residues 196-430; protein details: N-terminal 6xHis.
Series [6] concerns the target SSRP1-M R241A/R357A (Homo sapiens) (UniProt Q08945). The experiment in a line: EMSA (agarose and native PAGE). To be noted: less oligomerized, much more shifted complex than WT; EMSA buffer; proteins purified in 20 mM Tris-HCl, 200 mM NaCl, pH 7.0; recombinant protein; residues 196-430; protein details: N-terminal 6xHis.

Protein sequences, listed by entry. Tags and fused reporters are not part of them. Residues count along the entry.
UniProt Q08945, 196-430 R211A/R213A: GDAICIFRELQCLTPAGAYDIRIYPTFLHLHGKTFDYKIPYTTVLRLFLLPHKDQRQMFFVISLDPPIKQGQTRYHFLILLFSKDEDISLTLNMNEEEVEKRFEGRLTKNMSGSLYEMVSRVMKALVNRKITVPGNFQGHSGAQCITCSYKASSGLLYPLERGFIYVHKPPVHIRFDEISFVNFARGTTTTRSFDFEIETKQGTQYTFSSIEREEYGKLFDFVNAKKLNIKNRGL
UniProt Q08945, 196-430 R211A/R213A/K346A/K364A: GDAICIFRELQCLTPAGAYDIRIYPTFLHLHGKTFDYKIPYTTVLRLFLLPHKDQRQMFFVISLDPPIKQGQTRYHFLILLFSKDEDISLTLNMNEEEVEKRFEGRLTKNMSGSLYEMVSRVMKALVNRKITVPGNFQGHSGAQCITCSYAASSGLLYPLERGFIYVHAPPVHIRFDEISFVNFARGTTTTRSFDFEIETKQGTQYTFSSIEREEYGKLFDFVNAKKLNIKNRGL
UniProt Q08945, 196-430 R241A/K319A/K325A/R357A: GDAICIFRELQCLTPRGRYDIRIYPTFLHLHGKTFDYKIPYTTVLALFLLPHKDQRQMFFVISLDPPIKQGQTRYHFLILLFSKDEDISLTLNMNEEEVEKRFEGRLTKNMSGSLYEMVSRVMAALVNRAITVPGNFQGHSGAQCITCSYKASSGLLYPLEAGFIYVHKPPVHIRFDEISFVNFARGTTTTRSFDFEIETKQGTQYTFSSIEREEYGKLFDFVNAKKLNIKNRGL
UniProt Q08945, 196-430 K319A/K325A: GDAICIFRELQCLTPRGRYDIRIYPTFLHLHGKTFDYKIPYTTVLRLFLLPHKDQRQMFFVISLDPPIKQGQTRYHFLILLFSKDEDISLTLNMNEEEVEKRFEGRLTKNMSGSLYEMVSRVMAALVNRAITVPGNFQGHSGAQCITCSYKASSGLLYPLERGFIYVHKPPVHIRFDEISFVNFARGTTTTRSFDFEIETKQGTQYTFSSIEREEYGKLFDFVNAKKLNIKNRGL
UniProt Q08945, 196-430 K346A/K364A: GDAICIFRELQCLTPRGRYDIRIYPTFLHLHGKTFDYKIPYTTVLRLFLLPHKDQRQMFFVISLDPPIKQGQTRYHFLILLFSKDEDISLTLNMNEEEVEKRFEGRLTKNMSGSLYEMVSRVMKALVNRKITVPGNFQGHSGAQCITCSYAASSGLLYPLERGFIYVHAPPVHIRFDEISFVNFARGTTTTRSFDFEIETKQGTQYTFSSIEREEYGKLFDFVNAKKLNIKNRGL
UniProt Q08945, 196-430 R241A/R357A: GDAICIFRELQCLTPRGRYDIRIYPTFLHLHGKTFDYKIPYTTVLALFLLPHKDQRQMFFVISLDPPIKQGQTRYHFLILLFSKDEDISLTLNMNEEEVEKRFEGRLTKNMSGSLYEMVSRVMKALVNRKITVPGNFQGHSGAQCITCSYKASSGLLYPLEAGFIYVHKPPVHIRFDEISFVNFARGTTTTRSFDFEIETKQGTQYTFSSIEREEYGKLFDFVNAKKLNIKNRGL

Construct, isoform or probe ends are uncertain for at least one entry. For part of these data: The comparison behind a weaker result is the experiment's own reference, which may not be listed here. At least one verdict rests on a figure or table, not on a statement of the authors.

Consider “TCCAGTGCCGGTGTCGCTTGGGTCCCGAGG (double strand) [30-bp linker dsDNA]”, for which the binding result was “binds more weakly” in series [1]; “binds more weakly” in series [2]; “binds” in series [3]; “binds” in series [4]; “binds more weakly” in series [5]; “binds” in series [6].

The values above are taken from PMC4685450, “Crystal Structure of Human SSRP1 Middle Domain Reveals a Role in DNA Binding”.
